In patent US20170198050A1 (INHIBRX, published 2017):
Results are given in words; binding and its absence hold for the method and conditions named. Some binding calls cover weakened binding; strength is not graded here. One block for each binder: values may come before it.

Protein sequences, listed by entry. Tags and fused reporters are not part of them. Lines headed by an entry give the natural chain unless they say otherwise; changes in a name come on top. Residues count along the entry.
UniProt A9YYE7: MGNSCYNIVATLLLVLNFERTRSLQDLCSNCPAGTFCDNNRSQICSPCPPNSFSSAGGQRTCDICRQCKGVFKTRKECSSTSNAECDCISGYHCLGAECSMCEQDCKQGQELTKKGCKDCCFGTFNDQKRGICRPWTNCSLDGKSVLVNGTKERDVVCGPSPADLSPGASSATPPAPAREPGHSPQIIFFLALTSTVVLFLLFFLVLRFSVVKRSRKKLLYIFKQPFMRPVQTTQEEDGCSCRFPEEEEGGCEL
cynomolgus monkey 41BB expressed on the cell surface: residues 24-254 of A9YYE7
recombinant cynomolgus 41BB-mFc fusion protein: residues 24-186 of A9YYE7
UniProt Q9NZQ7, residues 19-290: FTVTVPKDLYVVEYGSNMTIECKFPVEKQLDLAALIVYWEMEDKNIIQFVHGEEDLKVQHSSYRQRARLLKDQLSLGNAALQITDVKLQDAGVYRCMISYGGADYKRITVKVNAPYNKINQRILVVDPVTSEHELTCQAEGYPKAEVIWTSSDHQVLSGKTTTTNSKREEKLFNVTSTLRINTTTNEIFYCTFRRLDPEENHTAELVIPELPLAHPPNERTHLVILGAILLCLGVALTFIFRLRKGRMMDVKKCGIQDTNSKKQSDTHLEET
UniProt Q07011, residues 24-255: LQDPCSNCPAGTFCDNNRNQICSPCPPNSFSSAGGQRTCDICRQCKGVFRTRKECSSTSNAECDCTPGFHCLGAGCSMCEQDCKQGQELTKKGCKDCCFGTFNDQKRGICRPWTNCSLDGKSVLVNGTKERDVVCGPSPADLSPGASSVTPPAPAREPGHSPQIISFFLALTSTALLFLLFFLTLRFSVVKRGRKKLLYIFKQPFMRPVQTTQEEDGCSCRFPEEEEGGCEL

Columns and labels:
[1] = biological target: recombinant cynomolgus 41BB-mFc fusion protein (cynomolgus monkey) (UniProt A9YYE7); experiment: ELISA, recombinant 41BB-mFc immobilized on Medisorp plate
[2] = biological target: cell surface PDL1 (species not stated) (UniProt Q9NZQ7); experiment: flow cytometry on PDL1-expressing CHO cells
[3] = biological target: recombinant cynomolgus 41BB-mFc fusion protein (cynomolgus monkey) (UniProt A9YYE7); experiment: ELISA, recombinant 41BB-mFc immobilized on Medisorp plate (FIG. 4)
[4] = biological target: cell surface PDL1 (species not stated) (UniProt Q9NZQ7); experiment: flow cytometry on PDL1 expressing CHO cells
[5] = biological target: cell surface PDL1 (species not stated) (UniProt Q9NZQ7); experiment: flow cytometry on PDL1 expressing CHO cells (FIG. 7A)
[6] = biological target: cynomolgus monkey 41BB expressed on the cell surface (cynomolgus monkey) (UniProt A9YYE7); experiment: flow cytometry on 41BB expressing 293freestyle cells
[7] = biological target: cell surface 41BB (species not stated) (UniProt Q07011); experiment: flow cytometry on CHO cells expressing the given TNFRSF member (FIG. 10)
[8] = biological target: cell surface 41BB (species not stated) (UniProt Q07011); experiment: flow cytometry on CHO cells expressing the given TNFRSF member

B1: 1G3 (VHH)
VHH: QVQLVQSGGGLVQPGGSLRLSCAASGFTFSSYAMSWVRQAPGKGLEWVSAIPAGDGSTKYADSVKGRFTISRDNAKNTVYLQMDSLKPEDTAVYFCAKSRGWSTVDDMDYWGKGTQV
notes: also called 41BB-targeting single domain antibody 1G3
binding [1]: binds

B2: hz28A2v4-1 (VHH)
VHH: EVQLLESGGGEVQPGGSLRLSCAASGGIFAIKPISWYRQAPGKQREWVTTTTSSGATNYAESVKGRFTISRDNAKNTVYLQMSSLRAEDTAVYYCNVFEYWGQGTLVTVKP
binding [2]: binds

B4: 4H04 (VHH)
VHH: QVQLQESGGGLVQAGDSLRLSCAASGWAFDNYGMAWFRQAPGKEREFIGRLAWNGGSTDYADSVKGRFTISRDNPKNTLYLQMNNLKPEDTAVYYCARQRSYSGYGIRTPQTYDYWGQGTQVT
notes: also called 4H4
binding [3]: binds
binding [1]: binds

B7: 28A10 (VHH)
VHH: QVQLQESGGGLVQAGGSLRLACTTSGGIFNIRPISWYRQPPGMQREWVATIAFGGATNYANSIKGRFTASRDNAKNTVYLQMNGLKPEDTAVYYCNAFEIWGQGTQVTV
binding [4]: binds
binding [5]: binds

B8: hzRH3v5-1 (VHH)
VHH: EVQLLESGGGEVQPGGSLRLSCAASGFSFSINAMGWYRQAPGKRREFVAAIESGRNTVYAESVKGRFTISRDNAKNTVYLQMSSLRAEDTAVYYCGLLKGNRVVSPSVAYWGQGTLVTVKP
binding [6]: binds
binding [7]: binds
binding [8]: binds

B12: 1H4 (VHH)
VHH: QVQLVQSGGGLVQPGGSLRLSCVVSGFTFRSYAMSWVRQAPGKGLEWVSTINSGESSTKYADSVKGRFTISRDDAKNTLYLQMSDLKPEDTAVYFCAKHRGWSTVDDINYWGKGTQV
notes: also called 41BB-targeting single domain antibody 1H4
binding [1]: binds

Other lines, results leading:

binding [1]: binds
B3: 1H1 (VHH)
VHH: QVQLVQSGGGLVQPGGSLRLSCAASGFTFDDHAMSWVRQAPGKGLEWVSAISWNGHYTYYAESMKGRFAISRDNAKNTLYLQMNSLKSEDTAVYYCVKGWRGSYTRDRPFASWGQGTQV
notes: also called 41BB-targeting single domain antibody 1H1

binding [1]: binds
B5: 4E01 (VHH)
VHH: QVQLQQSGGGLVQAGDSLRLSCAASGWAFGNYGMAWFRRAPGKEREFIGRLAWNGGSTDYVDSVKGRFTISRDNPKNTLYLQMNNLKPDDTAVYYCARQRSYSRYDIRTPQTYDYWGQGTQVT
notes: also called 4E1

binding [1]: binds
B6: 4F5 (VHH)
VHH: QVQLVQSGGGLVQPGGSLRLSCAASGWAFDNYGMAWFRQAPGKEREFIGRLAWNGGSTDYADSVKGRFTISRDNPKNTLYLQMNSLKPEDTAVYYCARQRSYSRYGIRAPQTYDYWGQGTQVT
notes: also called 4F05

binding [6]: binds
B9: hzRH3v9 (VHH)
VHH: EVQLLESGGGEVQPGGSLRLSCAASGFSFSINAMGWYRQAPGKGREFVAAIESGRNTVYAESVKGRFTISRDNAKNTVYLQMSSLRAEDTAVYYCGLLKGNRVVSPSVAYWGQGTLVTVKP

binding [3]: binds
B10: RH3 (VHH)
VHH: QVQLQESGGGLVQPGGSLRLSCAVSGFSFSINAMGWYRQAPGKRREFLAAIDSGRNTVYAVSVKGRFTISRDNAKNTVYLQMNSLKPEDTAIYYCGLLKGNRVVSPSVAYWGQGTQVT
notes: also called RH03

binding [1]: binds
B11: 1H8 (VHH)
VHH: EVQLVQSGGGLVQPGGSLRLSCAASGFTFSSYYMSWVRQAPGKGLEWVSTISTNTGGGSTYYAYADSVKGRFTISRDNAKNTLYLEMNSLKPEDTAQYYCVRTRWEGVYDYWGLGTQV
notes: also called 41BB-targeting single domain antibody 1H8
